# Percent effect of library compounds

The chains behind the UniProt entries cited, without tags or fusion partners. Residues count along the entry.
UniProt I6X8D2, whole entry: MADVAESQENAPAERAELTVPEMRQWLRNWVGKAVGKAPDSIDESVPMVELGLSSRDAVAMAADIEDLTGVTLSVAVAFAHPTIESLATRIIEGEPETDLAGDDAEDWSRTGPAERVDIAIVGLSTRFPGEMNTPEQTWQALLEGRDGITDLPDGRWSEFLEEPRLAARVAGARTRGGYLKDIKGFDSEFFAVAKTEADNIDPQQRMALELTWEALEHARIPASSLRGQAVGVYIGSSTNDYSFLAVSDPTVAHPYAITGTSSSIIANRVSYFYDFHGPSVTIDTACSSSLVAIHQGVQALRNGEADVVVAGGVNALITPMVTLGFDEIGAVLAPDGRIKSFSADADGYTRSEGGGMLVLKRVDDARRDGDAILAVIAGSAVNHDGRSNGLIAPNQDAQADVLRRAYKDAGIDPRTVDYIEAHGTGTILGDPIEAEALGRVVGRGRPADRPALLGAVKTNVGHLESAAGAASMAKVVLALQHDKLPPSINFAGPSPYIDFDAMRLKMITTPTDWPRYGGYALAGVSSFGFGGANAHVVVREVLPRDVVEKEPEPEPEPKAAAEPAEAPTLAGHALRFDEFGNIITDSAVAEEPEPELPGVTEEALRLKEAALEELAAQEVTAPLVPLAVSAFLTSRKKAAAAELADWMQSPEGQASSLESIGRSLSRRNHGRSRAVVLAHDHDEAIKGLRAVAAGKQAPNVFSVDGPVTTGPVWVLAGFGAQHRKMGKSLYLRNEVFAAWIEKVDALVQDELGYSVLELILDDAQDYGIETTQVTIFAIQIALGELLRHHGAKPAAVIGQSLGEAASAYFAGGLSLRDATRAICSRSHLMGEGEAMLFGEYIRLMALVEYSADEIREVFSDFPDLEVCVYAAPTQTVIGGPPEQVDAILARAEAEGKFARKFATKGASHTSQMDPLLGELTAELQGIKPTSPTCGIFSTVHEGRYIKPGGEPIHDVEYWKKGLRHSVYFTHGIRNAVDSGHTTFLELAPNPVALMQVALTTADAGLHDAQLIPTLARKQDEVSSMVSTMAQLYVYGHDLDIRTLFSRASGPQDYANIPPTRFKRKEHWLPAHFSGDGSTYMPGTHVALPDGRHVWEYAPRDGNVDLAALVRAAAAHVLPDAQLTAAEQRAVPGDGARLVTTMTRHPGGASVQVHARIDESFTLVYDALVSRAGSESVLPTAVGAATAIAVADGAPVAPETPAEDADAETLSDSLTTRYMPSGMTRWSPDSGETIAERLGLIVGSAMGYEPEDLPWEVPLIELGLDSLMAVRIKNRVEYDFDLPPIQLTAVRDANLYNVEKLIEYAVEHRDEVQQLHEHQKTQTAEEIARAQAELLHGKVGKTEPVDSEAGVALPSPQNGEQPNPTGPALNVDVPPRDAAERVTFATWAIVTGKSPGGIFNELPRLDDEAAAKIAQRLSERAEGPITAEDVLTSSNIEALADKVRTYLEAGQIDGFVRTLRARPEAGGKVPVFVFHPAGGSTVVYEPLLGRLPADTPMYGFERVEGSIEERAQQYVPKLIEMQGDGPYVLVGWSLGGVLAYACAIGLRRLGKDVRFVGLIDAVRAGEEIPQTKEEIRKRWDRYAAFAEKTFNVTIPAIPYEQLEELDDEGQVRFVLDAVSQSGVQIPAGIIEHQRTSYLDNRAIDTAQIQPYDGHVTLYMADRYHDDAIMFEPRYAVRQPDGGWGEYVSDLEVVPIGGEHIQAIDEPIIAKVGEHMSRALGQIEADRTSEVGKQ
UniProt A4I591, 1-473: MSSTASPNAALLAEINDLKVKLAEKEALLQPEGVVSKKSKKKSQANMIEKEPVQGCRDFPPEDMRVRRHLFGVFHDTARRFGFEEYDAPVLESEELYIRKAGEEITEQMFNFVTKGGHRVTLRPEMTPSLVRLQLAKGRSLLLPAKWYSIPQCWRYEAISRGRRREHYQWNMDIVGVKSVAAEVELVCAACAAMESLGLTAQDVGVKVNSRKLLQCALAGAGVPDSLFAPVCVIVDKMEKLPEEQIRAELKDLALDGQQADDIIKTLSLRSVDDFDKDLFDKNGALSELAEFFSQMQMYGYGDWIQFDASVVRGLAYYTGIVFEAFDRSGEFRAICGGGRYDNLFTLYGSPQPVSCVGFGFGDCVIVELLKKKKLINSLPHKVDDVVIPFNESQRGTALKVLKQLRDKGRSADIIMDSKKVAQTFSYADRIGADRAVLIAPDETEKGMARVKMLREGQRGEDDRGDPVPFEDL
UniProt P9WPC5, whole entry: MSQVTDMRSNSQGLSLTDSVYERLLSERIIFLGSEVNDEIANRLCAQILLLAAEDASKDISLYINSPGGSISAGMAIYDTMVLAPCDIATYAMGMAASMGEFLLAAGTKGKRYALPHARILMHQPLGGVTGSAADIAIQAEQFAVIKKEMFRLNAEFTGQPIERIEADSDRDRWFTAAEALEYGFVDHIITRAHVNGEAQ
UniProt P9WPC3, whole entry partner: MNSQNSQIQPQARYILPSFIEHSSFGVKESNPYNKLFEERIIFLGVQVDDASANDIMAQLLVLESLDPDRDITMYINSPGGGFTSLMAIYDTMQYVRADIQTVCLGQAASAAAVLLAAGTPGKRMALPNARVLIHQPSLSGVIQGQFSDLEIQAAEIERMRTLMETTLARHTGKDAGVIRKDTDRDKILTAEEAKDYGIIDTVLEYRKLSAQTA
UniProt P9WNZ1, whole entry: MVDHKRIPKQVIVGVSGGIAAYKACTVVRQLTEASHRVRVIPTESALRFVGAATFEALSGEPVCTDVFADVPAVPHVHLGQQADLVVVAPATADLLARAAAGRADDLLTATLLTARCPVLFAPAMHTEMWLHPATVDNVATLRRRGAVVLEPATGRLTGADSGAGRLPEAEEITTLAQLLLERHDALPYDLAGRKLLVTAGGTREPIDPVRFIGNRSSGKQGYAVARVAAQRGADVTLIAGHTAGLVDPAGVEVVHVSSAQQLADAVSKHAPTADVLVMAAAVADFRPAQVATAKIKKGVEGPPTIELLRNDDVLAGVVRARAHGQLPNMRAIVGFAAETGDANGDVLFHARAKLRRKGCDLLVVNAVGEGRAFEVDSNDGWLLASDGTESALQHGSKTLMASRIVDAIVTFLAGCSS

The values are deposited in ChEMBL (CHEMBL3988442, “University of Dundee, Small-Polar-MMV Screening Library” (2021)).

Values are the deposited “Percent Effect”, in %.
How 0% and 100% were set is not recorded. Most values in the screen are low, and negative values occur.
This is an unselected part of the compounds tested.

A: 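Polyketide synthase Pks13, Mycobacterium tuberculosis (UniProt I6X8D2). Enzyme assay of the thioesterase domain of polyketide synthase 13; the read-out is not stated. Compounds at 30 µM. The record gives no direction; the compounds picked for IC50 retests had high values, so higher reads as stronger inhibition. Size under these conditions: about 67,000 compounds, about 300 of them at 50% or above in at least one test.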
B: 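Enzyme assay of histidyl-tRNA synthetase; the read-out is not stated. Target: Histidine-tRNA ligase, Leishmania infantum (UniProt A4I591). Concentration: 30 µM. Higher reads as stronger inhibition (inferred: compounds with an IC50 in retests scored well above the rest). The assay is labelled LdHisRS but filed under L. infantum. Of about 69,000 compounds tested this way, about 410 (0.6%) reached 50% or more in at least one test.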
C: 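Cell assay of Leishmania donovani living inside macrophages; the read-out is not stated. Compounds at 30 µM. Higher reads as stronger inhibition (inferred: compounds with an IC50 in retests scored well above the rest). About 69,000 compounds were tested under these conditions; 1.5% (about 1,000) showed 50% or more at least once.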
D: 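ClpP1P2, Mycobacterium tuberculosis (UniProt P9WPC5 and UniProt P9WPC3). Protease assay of ClpP1P2, read by the AMC dye that it sets free. Tested at 50 µM. Higher reads as stronger inhibition, judged from the few compounds that gave an IC50. Most other retested compounds had strongly negative values. Of about 69,000 compounds tested this way, about 10 (0.015%) reached 50% or more in at least one test.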
E: 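Assay of Toxoplasma gondii numbers, read through their beta-galactosidase reporter with a colour substrate. Concentration: 10 µM. The record gives no direction; the compounds picked for IC50 retests had high values, so higher reads as fewer parasites. Of about 67,000 compounds tested this way, about 260 (0.38%) reached 50% or more in at least one test.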
F: 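Coenzyme A biosynthesis protein CoaBC, Mycobacterium tuberculosis (UniProt P9WNZ1). Enzyme assay of CoaBC with a phosphate dye (Biomol Green) read at 650 nm. Concentration: 30 µM. Direction is inferred from only a few compounds that gave an IC50; most scored high, so higher reads as stronger inhibition. Most strong results did not repeat in a second test. About 67,000 compounds were tested under these conditions; 0.06% (about 40) showed 50% or more at least once.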

* COCCCNC(=O)CN(C)C(=O)c1cc(Cl)ccc1O | A: -13.97%; B: 16.51%; C: 25.86%; D: -15.53%; E: 9.257%; F: 6.849%
* CCN1CCN(C(=O)c2ccc3c(c2)OCC(=O)N3)[C@H]2CS(=O)(=O)C[C@H]21 | A: -22.3%; B: 0%; D: -5.255%; F: 5.6%
* Cc1nc(NC(C)C)nc2c1CN(Cc1cccs1)CC2 | A: -23%; B: 46.15%; C: -13.14%; D: 2.341%; E: -0.1596%
* CC(C)CN1CCN(S(=O)(=O)c2cn(C)cn2)[C@H]2CS(=O)(=O)C[C@H]21 | A: -14.48%; B: 9.524%; D: 10.23%; F: 0.4969%
* CCS(=O)(=O)N1CCC2(CC1)CC1(CCN(CCOC)CC1)C(=O)N2C.O=C(O)C(F)(F)F | C: 13.27%; E: 0.8207%
* CCc1csc(C2CCCN(C(=O)c3ccc(=O)n(C)n3)C2)n1 (centres undefined) | A: -9.554%; B: 15.38%; C: 7.201%; D: 1.494%; E: -1.628%; F: -9.634%
* [H][C@@]12CS(=O)(=O)C[C@]1([H])N(C(=O)c1cc(C(C)C)no1)CCN2C(C)=O | C: 2.916%; E: 5.795%
* O=C1C(Nc2nccn3cnnc23)CCCN1c1ccccc1Cl (centres undefined) | A: -9.369%; B: 0%; C: 2.443%; D: -2.958%; E: 12.29%; F: -6.997%
* [H][C@@]12CN(C(C)=O)C[C@]1(C(=O)NC)CCC21CCN(S(=O)(=O)CC)CC1 | C: -8.992%; E: -1.723%
* CCc1csc(CNc2cc(C)nc(-c3cccnc3)n2)n1 | A: -13.04%; B: 12.94%; C: 31.61%; D: -12.48%; E: -9.508%; F: 6.472%
* CCN1CCc2onc(CNc3ncccn3)c2C1 | A: 27.04%; B: -1.37%; C: -18.33%; D: -8.202%; E: 4.28%; F: -7.341%
* CC(C)c1noc(CCCC(=O)N2CCN(Cc3ccsc3)CC2)n1 | A: -4.398%; B: 14.55%; C: 27%; D: -22.36%; E: -38.07%; F: 5.357%
* OCCN(Cc1cccnc1)c1ccc(Cl)cn1 | A: -27.59%; B: 9.524%; C: 18.24%; D: 0.8624%; E: 1.711%; F: 0.3241%
* Cc1c[nH]c(C2COCCN2S(=O)(=O)c2cn[nH]c2)n1 (centres undefined) | A: 4.821%; B: 13.1%; C: 6.942%; D: -1.821%; E: -15.56%; F: 12.98%
* [H][C@@]12CCN(S(=O)(=O)CC)C[C@]1(c1nnc(C)o1)CCO2 | C: 11.76%; E: 1.596%

2 of the entries, repeated:

structure,A,B,C,D,E,F
CCc1csc(C2CCCN(C(=O)c3ccc(=O)n(C)n3)C2)n1 (centres undefined),-9.554,15.38,7.201,1.494,-1.628,-9.634
Cc1c[nH]c(C2COCCN2S(=O)(=O)c2cn[nH]c2)n1 (centres undefined),4.821,13.1,6.942,-1.821,-15.56,12.98